No constants are given. Whether binding was seen depends on the method and setting. Binding seen in cells or lysates may run through a third protein.

Amino acid sequences for entries named in this document (tags omitted). Residues count along the entry.
UniProt Q10589, residues 1-161: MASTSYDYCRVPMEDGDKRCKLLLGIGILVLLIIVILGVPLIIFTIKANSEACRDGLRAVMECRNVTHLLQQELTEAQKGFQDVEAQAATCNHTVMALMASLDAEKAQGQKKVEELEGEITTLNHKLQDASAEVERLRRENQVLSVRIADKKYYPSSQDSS
UniProt Q9NNX6: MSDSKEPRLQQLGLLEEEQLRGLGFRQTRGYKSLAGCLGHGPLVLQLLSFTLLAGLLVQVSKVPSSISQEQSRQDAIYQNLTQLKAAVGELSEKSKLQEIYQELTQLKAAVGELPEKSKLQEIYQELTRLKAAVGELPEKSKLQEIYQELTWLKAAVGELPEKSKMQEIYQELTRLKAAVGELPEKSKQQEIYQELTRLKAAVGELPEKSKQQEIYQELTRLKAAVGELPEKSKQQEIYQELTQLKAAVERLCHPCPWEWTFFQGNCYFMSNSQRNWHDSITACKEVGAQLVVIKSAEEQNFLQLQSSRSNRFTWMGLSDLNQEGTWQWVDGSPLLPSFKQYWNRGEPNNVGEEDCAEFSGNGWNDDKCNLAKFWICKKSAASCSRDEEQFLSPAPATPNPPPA

This note sets out measurements from publication PMC3751551.

The target of experiment [1] is Rluc-BST2 (UniProt Q10589). The experiment can be described thus: FRET or BRET; BRET saturation curve: HEK293T cells co-transfected with a fixed amount of R-B plasmid and increasing amounts of the EYFP fusion plasmid.
Experiment [2] concerns the target Rluc-BST2 (UniProt Q10589). Briefly: FRET or BRET; BRET in live HEK293T cells co-transfected with the Rluc donor and the EYFP acceptor fusion; 48 h after transfection, cells in PBS, coelenterazine h 5 uM; ratio 530 nm/475 nm corrected for donor only.
Experiment [3] deals with Rluc-BST2 (UniProt Q10589). The experiment can be described thus: FRET or BRET; BRET competition curve: HEK293T cells with constant amounts of R-B and Vm-E and increasing amounts of an untagged competitor plasmid.

Consider E-CD209 (from UniProt Q9NNX6 1-404), for which the binding result in the experiment with Rluc-BST2 [1] and with Rluc-BST2 [2] was “no binding” in each case.
With “untagged protein CD209 (from UniProt Q9NNX6 1-404)”, the binding entry with Rluc-BST2 [3] is “no binding”.
